Measurements reported in PubChem BioAssay AID652272 (Drosophila RNAi Screening Center, 2013)

Assay: 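Genes whose knock-down decreases or increases Hedgehog reporter output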 (primary screen)
Cells: Drosophila clone 8 (Cl8) cells
Reagents: long dsRNA against Drosophila genes
Measured: 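Plate reader light from a firefly reporter under a ptc promoter fragment that responds to Hedgehog, with Renilla light as transfection reference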
Reading the numbers: firefly Hh reporter signal: higher = more ptc reporter light; Renilla reference signal: higher = more Renilla control light
Rule for the call: 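Called a hit if the two-replicate mean z-score lies below -2 or above +3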
Calls: active = hit: reporter lowered or raised; inactive = not a hit
The screen tested about 21,000 reagents; shown is a random part of those with a known target gene and a result. Of all reagents, 503 (2.4%) are marked active. 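Raw plate light values, not normalised; calls rest on replicate z-scores that were not deposited; hits include reporter decreases as well as increases.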 Reagents against one gene are numbered here. The record does not give: the amount of reagent, the time to read-out.

target gene | dsRNA no. | firefly Hh reporter signal, replicate 1 | firefly Hh reporter signal, replicate 2 | firefly Hh reporter signal, replicate 3 | Renilla reference signal, replicate 1 | Renilla reference signal, replicate 2 | Outcome
CG14369 | 1 | 73575 | 74620 | – | 2389 | 2295 | inactive
Oct-TyrR | 1 | 81065 | 89702 | – | 2786 | 2230 | inactive
hrg | 1 | 1.00e5 | 47675 | – | 2818 | 3829 | inactive
CG30289 | 1 | 1.11e5 | 1.70e5 | – | 2801 | 7740 | inactive
Cyp9b1 | 1 | 80997 | 58563 | – | 2032 | 4169 | inactive
CG9632 | 1 | 83079 | 98464 | – | 2011 | 2629 | inactive
CG16879 (retired record) | 1 | 1.88e5 | 8.94e5 | 85200 | 4825 | 49424 | inactive
Cyp313a3 | 1 | 1.02e5 | 1.71e5 | – | 2872 | 4327 | inactive
Charon | 1 | 69241 | 37269 | – | 3025 | 1900 | inactive
ProtB | 1 | 1.05e5 | 51098 | – | 2682 | 5383 | inactive
gwl | 1 | 79248 | 53733 | – | 2965 | 2183 | inactive
Grip75 | 1 | 73228 | 49248 | – | 2503 | 4725 | inactive
BomBc3 | 1 | 8.33e5 | 1.95e5 | – | 37011 | 14832 | inactive
Ada | 1 | 83753 | 1.58e5 | – | 2616 | 4288 | inactive
RPA3 | 1 | 83488 | 1.92e5 | – | 2794 | 7990 | inactive
CG17108 | 1 | 1.67e5 | 62512 | – | 4416 | 6667 | inactive
CG9109 | 1 | 87472 | 48864 | – | 3845 | 2054 | inactive
CG7227 | 1 | 1.27e5 | 73585 | – | 4378 | 3440 | inactive
CG31924 | 1 | 1.16e5 | 99064 | – | 2953 | 2450 | inactive
AdamTS-B | 1 | 4.24e5 | 1.50e5 | – | 22333 | 3001 | inactive
AdamTS-B | 2 | 1.09e5 | 3.05e5 | – | 3588 | 11828 | inactive
trol | 1 | 5.61e5 | 2.32e5 | – | 28688 | 4976 | inactive
trol | 2 | 4.77e5 | 2.69e5 | – | 20595 | 5978 | inactive
trol | 3 | 85508 | 1.60e5 | – | 3312 | 5879 | inactive
trol | 4 | 80441 | 1.98e5 | – | 2816 | 7076 | inactive
CG31997 | 1 | 4.51e5 | 2.36e5 | – | 21476 | 4706 | inactive
Alms1a | 1 | 59648 | 1.15e5 | – | 2240 | 4361 | inactive
Lrpprc2 | 1 | 81085 | 93431 | – | 1613 | 3241 | inactive
Mur18B | 1 | 1.33e5 | 71860 | – | 3115 | 1564 | inactive
ng4 | 1 | 1.19e5 | 3.22e5 | – | 4230 | 10968 | inactive
ppk14 | 1 | 1.74e5 | 56835 | – | 4469 | 5088 | inactive
mst | 1 | 60038 | 4.00e5 | – | 1237 | 14973 | inactive
Cad96Cb | 1 | 5.02e5 | 88469 | – | 21168 | 6291 | inactive
Cad96Cb | 2 | 6.08e5 | 92546 | – | 33248 | 24352 | inactive
CG9815 | 1 | 83714 | 36300 | – | 2277 | 3965 | inactive
gNacalpha | 1 | 1.01e5 | 1.02e5 | – | 2595 | 2475 | inactive
CG2614 | 1 | 6.16e5 | 1.20e5 | – | 4901 | 4901 | inactive
SMC5 | 1 | 1.24e5 | 1.32e5 | – | 4536 | 4688 | inactive
CG9826 | 1 | 81155 | 60043 | – | 1339 | 5709 | inactive

A run of entries of the results above, as a working copy:
target gene | dsRNA no. | firefly Hh reporter signal, replicate 1 | firefly Hh reporter signal, replicate 2 | firefly Hh reporter signal, replicate 3 | Renilla reference signal, replicate 1 | Renilla reference signal, replicate 2 | Outcome
hrg | 1 | 1.00e5 | 47675 | – | 2818 | 3829 | inactive
CG30289 | 1 | 1.11e5 | 1.70e5 | – | 2801 | 7740 | inactive
